{"source": "PubChem BioAssay AID504764 (Drosophila RNAi Screening Center, 2011)", "aim": "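Genome-wide screen for regulators of Notch-driven gene expression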 (primary screen)", "cell system": "Drosophila Kc167 cells", "knock-down reagent": "long dsRNA against Drosophila genes", "duration": "about 5 days (4 days dsRNA, then 24 h after transfection)", "treatment": "transfection of constitutively active membrane-tethered Notch lacking the extracellular domain, read 24 h later", "measured": "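Light from a Notch-responsive E(spl)m3 luciferase reporter under active Notch, with control-promoter and no-Notch reporter wells to normalise; raw counts from paired wells a and b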", "scale": "induced reporter light, run 1, well a and induced reporter light, run 1, well b: higher = more light from the Notch target reporter with active Notch; control promoter light, run 1, well a and control promoter light, run 1, well b: higher = more light from the viral control promoter (cell number, transfection, viability); uninduced reporter light, run 1, well a: higher = more light from the Notch target reporter without active Notch", "call rule": "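Hit if the duplicate-averaged log2 ratio of induced to control-promoter light gives a plate-wise z beyond ±2, or induced to uninduced beyond ±1.8; weak-control or discordant-duplicate wells dropped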", "calls": "active = modifier hit (raised or lowered Notch signal); inactive = not a hit", "note": "The deposit covers about 22,000 reagents; below is a random part of those with a known target gene and a result. Over the whole deposit, 403 (1.9%) were called active. 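Unnormalised raw counts per well; ratio z-scores behind the hit calls and whether each hit raises or lowers signal are not deposited.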 Reagent sequences are not shown. Not stated in the record: the amount of reagent."}
{"Gene": "Ctl1 (Choline transporter-like 1)", "dsRNA": "DRSC08303", "induced reporter light, run 1, well a": 1.02e5, "induced reporter light, run 1, well b": 1.25e5, "control promoter light, run 1, well a": 2.20e5, "control promoter light, run 1, well b": 1.86e5, "uninduced reporter light, run 1, well a": 11890, "call": "inactive"}
{"Gene": "CG1907", "dsRNA": "DRSC15399", "induced reporter light, run 1, well a": 2.30e5, "induced reporter light, run 1, well b": 2.07e5, "control promoter light, run 1, well a": 2.58e5, "control promoter light, run 1, well b": 2.58e5, "uninduced reporter light, run 1, well a": 13878, "call": "inactive"}
{"Gene": "Rpn5 (Regulatory particle non-ATPase 5)", "dsRNA": "DRSC12367", "induced reporter light, run 1, well a": 26615, "induced reporter light, run 1, well b": 28700, "control promoter light, run 1, well a": 13700, "control promoter light, run 1, well b": 11405, "uninduced reporter light, run 1, well a": 2835, "call": "inactive"}
{"Gene": "CG14965", "dsRNA": "DRSC08424", "induced reporter light, run 1, well a": 1.24e5, "induced reporter light, run 1, well b": 1.02e5, "control promoter light, run 1, well a": 1.08e5, "control promoter light, run 1, well b": 27320, "uninduced reporter light, run 1, well a": 10928, "call": "inactive"}
{"Gene": "phyl (phyllopod)", "dsRNA": "DRSC07663", "induced reporter light, run 1, well a": 63935, "induced reporter light, run 1, well b": 89530, "control promoter light, run 1, well a": 91715, "control promoter light, run 1, well b": 87545, "uninduced reporter light, run 1, well a": 7820, "call": "inactive"}
{"Gene": "wech", "dsRNA": "DRSC06606", "induced reporter light, run 1, well a": 1.45e5, "induced reporter light, run 1, well b": 1.46e5, "control promoter light, run 1, well a": 1.51e5, "control promoter light, run 1, well b": 1.32e5, "uninduced reporter light, run 1, well a": 11330, "call": "inactive"}
{"Gene": "Fdh (Formaldehyde dehydrogenase)", "dsRNA": "DRSC16670", "induced reporter light, run 1, well a": 1.02e5, "induced reporter light, run 1, well b": 1.04e5, "control promoter light, run 1, well a": 66790, "control promoter light, run 1, well b": 68650, "uninduced reporter light, run 1, well a": 8060, "call": "inactive"}
{"Gene": "Grx1t (Glutaredoxin 1, testis-specific)", "dsRNA": "DRSC04530", "induced reporter light, run 1, well a": 33710, "induced reporter light, run 1, well b": 36640, "control promoter light, run 1, well a": 31295, "control promoter light, run 1, well b": 30520, "uninduced reporter light, run 1, well a": 2380, "call": "inactive"}

Single entries from the list:
Entry for Fdh (Formaldehyde dehydrogenase) [DRSC16670] in “induced reporter light, run 1, well b”: 1.04e5
Result of Grx1t (Glutaredoxin 1, testis-specific) [DRSC04530] under “control promoter light, run 1, well a”: 31295
Under “call”, CG1907 [DRSC15399] has inactive

Continued.
{"Gene": "Bbd (Bombardier)", "dsRNA": "DRSC06709", "induced reporter light, run 1, well a": 1.01e5, "induced reporter light, run 1, well b": 74925, "control promoter light, run 1, well a": 1.27e5, "control promoter light, run 1, well b": 1.35e5, "uninduced reporter light, run 1, well a": 8155, "call": "inactive"}
{"Gene": "Tpst (Tyrosylprotein sulfotransferase)", "dsRNA": "DRSC18989", "induced reporter light, run 1, well a": 1.12e5, "induced reporter light, run 1, well b": 1.23e5, "control promoter light, run 1, well a": 1.14e5, "control promoter light, run 1, well b": 1.12e5, "uninduced reporter light, run 1, well a": 10305, "call": "inactive"}
{"Gene": "Tpst (Tyrosylprotein sulfotransferase)", "dsRNA": "DRSC19696", "induced reporter light, run 1, well a": 56540, "induced reporter light, run 1, well b": 66580, "control promoter light, run 1, well a": 71655, "control promoter light, run 1, well b": 84515, "uninduced reporter light, run 1, well a": 5680, "call": "inactive"}
{"Gene": "Tpst (Tyrosylprotein sulfotransferase)", "dsRNA": "DRSC19723", "induced reporter light, run 1, well a": 1.17e5, "induced reporter light, run 1, well b": 90765, "control promoter light, run 1, well a": 1.33e5, "control promoter light, run 1, well b": 1.70e5, "uninduced reporter light, run 1, well a": 8670, "call": "inactive"}
{"Gene": "Tpst (Tyrosylprotein sulfotransferase)", "dsRNA": "DRSC19724", "induced reporter light, run 1, well a": 12805, "induced reporter light, run 1, well b": 13355, "control promoter light, run 1, well a": 11660, "control promoter light, run 1, well b": 12615, "uninduced reporter light, run 1, well a": 4020, "call": "inactive"}
{"Gene": "Tpst (Tyrosylprotein sulfotransferase)", "dsRNA": "DRSC22621", "call": "inactive"}
{"Gene": "CG8611", "dsRNA": "DRSC19340", "induced reporter light, run 1, well a": 1.27e5, "induced reporter light, run 1, well b": 1.19e5, "control promoter light, run 1, well a": 1.02e5, "control promoter light, run 1, well b": 59275, "uninduced reporter light, run 1, well a": 9970, "call": "inactive"}
{"Gene": "Gr93c (Gustatory receptor 93c)", "dsRNA": "DRSC14587", "induced reporter light, run 1, well a": 1.72e5, "induced reporter light, run 1, well b": 1.47e5, "control promoter light, run 1, well a": 1.80e5, "control promoter light, run 1, well b": 1.78e5, "uninduced reporter light, run 1, well a": 10405, "call": "inactive"}
{"Gene": "CG10565", "dsRNA": "DRSC11620", "induced reporter light, run 1, well a": 95965, "induced reporter light, run 1, well b": 96075, "control promoter light, run 1, well a": 42275, "control promoter light, run 1, well b": 66500, "uninduced reporter light, run 1, well a": 7940, "call": "inactive"}
{"Gene": "EMRE (Essential MCU regulator)", "dsRNA": "DRSC06686", "induced reporter light, run 1, well a": 31895, "induced reporter light, run 1, well b": 35180, "control promoter light, run 1, well a": 43575, "control promoter light, run 1, well b": 36580, "uninduced reporter light, run 1, well a": 3240, "call": "inactive"}
{"Gene": "Pdxk (Pyridoxal kinase)", "dsRNA": "DRSC10419", "induced reporter light, run 1, well a": 1.71e5, "induced reporter light, run 1, well b": 1.97e5, "control promoter light, run 1, well a": 3.06e5, "control promoter light, run 1, well b": 2.52e5, "uninduced reporter light, run 1, well a": 5590, "call": "inactive"}
{"Gene": "RpS6 (Ribosomal protein S6)", "dsRNA": "DRSC18712", "induced reporter light, run 1, well a": 4830, "induced reporter light, run 1, well b": 4500, "control promoter light, run 1, well a": 6875, "control promoter light, run 1, well b": 8275, "uninduced reporter light, run 1, well a": 340, "call": "inactive"}
{"Gene": "Prosalpha3 (Proteasome alpha3 subunit)", "dsRNA": "DRSC04644", "induced reporter light, run 1, well a": 5610, "induced reporter light, run 1, well b": 5105, "control promoter light, run 1, well a": 7615, "control promoter light, run 1, well b": 5250, "uninduced reporter light, run 1, well a": 735, "call": "inactive"}
{"Gene": "Sec13 (Secretory 13)", "dsRNA": "DRSC14144", "induced reporter light, run 1, well a": 1.18e5, "induced reporter light, run 1, well b": 1.37e5, "control promoter light, run 1, well a": 1.69e5, "control promoter light, run 1, well b": 1.93e5, "uninduced reporter light, run 1, well a": 8655, "call": "inactive"}
{"Gene": "Spt-I (Serine palmitoyltransferase subunit I)", "dsRNA": "DRSC06860", "induced reporter light, run 1, well a": 86585, "induced reporter light, run 1, well b": 96120, "control promoter light, run 1, well a": 1.07e5, "control promoter light, run 1, well b": 1.33e5, "uninduced reporter light, run 1, well a": 9970, "call": "inactive"}
{"Gene": "Jra (Jun-related antigen)", "dsRNA": "DRSC07447", "induced reporter light, run 1, well a": 1.79e5, "induced reporter light, run 1, well b": 2.49e5, "control promoter light, run 1, well a": 1.94e5, "control promoter light, run 1, well b": 2.00e5, "uninduced reporter light, run 1, well a": 18405, "call": "inactive"}
